PubChem BioAssay AID1259308 – NCATS – 2017

Aim: 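Candidate targets for better recombinant protein yield in mammalian cells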 (primary screen)
System: human HEK293 embryonic kidney cells stably expressing firefly luciferase (HEK-CMV-Luc2-Hygro)
Knock-down reagent: single siRNA against human genes, 0.8 pmol siRNA per well
Duration: 72 h
Detection: 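Luciferase light (ONE-Glo) measured on one replicate plate set and viability (CellTiter-Glo) on the other, scaled to a negative control siRNA, with robust z-scores and luciferase per cell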
Reading the numbers: total luciferase, z-score and total luciferase, % of control: higher = more reporter protein produced; luciferase per cell, z-score: higher = more reporter output per viable cell; viable cells, % of control: higher = more viable cells
Active means: 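An siRNA counts as active if its total luciferase robust z-score exceeds 3; genes with two or more such siRNAs out of three were retested with fresh siRNAs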
Calls: active = raised luciferase; inactive = no rise
This is an unselected part of about 59,000 reagents. About 1,510 of them (2.6%) count as active. 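Calls use total luciferase alone and ignore viability, so some active siRNAs may act by altering cell number.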 The numbers tell different reagents against one gene apart.

total luciferase, z-score | total luciferase, % of control | luciferase per cell, z-score | viable cells, % of control | Outcome | Target gene | reagent no.
-0.259 | 76.7 | -0.864 | 108 | inactive | CD8B | 1
-0.169 | 78.5 | 0.0445 | 86.7 | inactive | CD8B | 2
-0.133 | 79.2 | -0.762 | 108 | inactive | CD8B | 3
-0.21 | 77.7 | -0.464 | 98.1 | inactive | AGBL5 | 1
3.46 | 151 | 2.56 | 85.8 | active | AGBL5 | 2
0.0215 | 82.3 | 1.2 | 67.1 | inactive | AGBL5 | 3
-0.542 | 71.1 | -0.668 | 94.8 | inactive | DZIP3 | 1
0.19 | 85.7 | 0.065 | 94.1 | inactive | DZIP3 | 2
1.29 | 107 | 0.707 | 99.7 | inactive | DZIP3 | 3
0.158 | 85 | 0.245 | 89.1 | inactive | PLCL1 | 1
0.117 | 84.2 | -0.893 | 119 | inactive | PLCL1 | 2
-0.688 | 68.2 | -0.69 | 91.4 | inactive | PLCL1 | 3
0.204 | 86 | 0.223 | 90.6 | inactive | HPX-2 (retired record) | 1
1.52 | 112 | 1.41 | 86.4 | inactive | HPX-2 (retired record) | 2
1.52 | 112 | 1.48 | 84.9 | inactive | HPX-2 (retired record) | 3

3 entries from above, reduced to “total luciferase, z-score”:
CD8B #2	-0.169
CD8B #3	-0.133
AGBL5 #1	-0.21

Further reagents follow.
total luciferase, z-score | total luciferase, % of control | luciferase per cell, z-score | viable cells, % of control | Outcome | Target gene | reagent no.
1.27 | 107 | 1.9 | 72.6 | inactive | RPP25L | 1
0.738 | 96.6 | 1.52 | 72.4 | inactive | RPP25L | 2
-0.677 | 68.4 | -1.14 | 103 | inactive | RPP25L | 3
-0.618 | 69.6 | -0.721 | 94 | inactive | GSX2 | 1
-0.248 | 77 | -0.375 | 94.9 | inactive | GSX2 | 2
-2.05 | 41.2 | -2.4 | 86.6 | inactive | GSX2 | 3
0.992 | 102 | 1.19 | 83 | inactive | KATNA1 | 1
2.45 | 131 | 1.38 | 101 | inactive | KATNA1 | 2
-0.345 | 75 | -0.443 | 94.2 | inactive | KATNA1 | 3
